# Measured values taken from patent EP3733658B1, “PRENYLATED BENZOPYRANES AS PPAR AGONISTS” (Universitat de València, priority 2017, dated 2019).
# At least one compound was matched to its structure with a doubt left.
# System: mononuclear cell adhesion induced by TNFα
# Test: Mononuclear cell adhesion to TNFα-stimulated HUVEC transfected with control or RXRα, PPARα, PPARγ specific siRNA
# Format: cell-based, human
# Conditions: polycerasoidol 10 µM, rosiglitazone 1 µM, 20 h
structure (smiles),measurement,setting,value
"CN(CCOc1ccc(CC2SC(=O)NC2=O)cc1)c1ccccn1 (centres unmarked) [Rosiglitazone, rosiglitazone, reference compound]",inhibitory response on mononuclear cell adhesion after PPARα silencing,PPARα siRNA HUVEC,not affected
same,TNFα-induced adhesion of mononuclear cells,control siRNA transfected HUVEC,inhibited
